These are literature values, as cited in article PMC8623179, “Design and Microwave Synthesis of New (5Z) 5-Arylidene-2-thioxo-1,3-thiazolinidin-4-one and (5Z) 2-Amino-5-arylidene-1,3-thiazol-4(5H)-one as New Inhibitors of Protein Kinase DYRK1A” (Pharmaceuticals, 2021).

Structures are written as SMILES. Read-outs that look alike come from different tables or passages of the source.

For this data set, the system named is GSK-3α/β. The conditions noted are these: read-out: IC50 GSK3α/β, positive control, cited from earlier work.

`CC[C@H](CO)Nc1nc(NCc2ccccc2)c2ncn(C(C)C)c2n1` [(R)-Roscovitine]: the IC50 runs as follows: (Table 4) 130 µM; (Table 5, same values as Table 4) 130 µM.
